Measured values as given in patent US20150133651, “CslA9 Gluco-mannan Synthase Gene” (published 2015).

Tests used:
[1] = biological target: T1, AtbZIP1 (At5g49450) (Arabidopsis thaliana) (UniProt Q9FGX2); test: EMSA; conditions: purified recombinant protein; protein details: GST fusion, E. coli Rosetta gami; label: 32P
T1 sequence (limits assumed): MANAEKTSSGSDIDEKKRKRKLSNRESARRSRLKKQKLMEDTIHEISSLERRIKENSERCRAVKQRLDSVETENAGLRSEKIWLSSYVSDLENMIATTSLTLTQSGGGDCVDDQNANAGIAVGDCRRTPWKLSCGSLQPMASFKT

[2] = biological target: T2, ANAC041 (At2g33480) (Arabidopsis thaliana) (UniProt O22798); test: EMSA; conditions: purified recombinant protein; protein details: GST fusion, E. coli Rosetta gami; label: 32P
T2 sequence (limits assumed): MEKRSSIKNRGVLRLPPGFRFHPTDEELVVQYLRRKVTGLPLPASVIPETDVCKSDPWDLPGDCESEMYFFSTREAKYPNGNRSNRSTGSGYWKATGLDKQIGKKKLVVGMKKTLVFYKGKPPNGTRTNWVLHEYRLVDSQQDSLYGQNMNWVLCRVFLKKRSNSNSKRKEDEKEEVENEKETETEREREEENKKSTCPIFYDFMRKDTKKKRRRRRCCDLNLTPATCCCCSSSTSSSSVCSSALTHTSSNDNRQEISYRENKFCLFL

Sequence	binding result [1]	binding result [2]
AAGCATTTTTTTTAACAATGACATTTTTATTTTTTAAGAAAATTATTTTATCAGAAACTTAAAATAACAATTTGTTTTGTATCTTCGCCTGGACGTCATTAATGTTTGTGTCGTTCAATAATGTTTGGTAGTTATATATAGAAAGAGCAAATTTATGGTTGATTGATGGTGCAAAAAAATTCATTTCTCTATATTCTAGAGAAATAAAATAAAAGAATAATGGAATATTAAATAGAGTCTAAAACAATATACACAAGGACAGAGCCTTTATATATAAAGACATTGATCTCTCTCTGATTT (double strand) [CSLA9 promoter -762 to -463]	binds	
TTCGATTATCCTCATCAGAGATGTTCGCTATCTTGTCAATAGATGAGGACAAACAATATGAGACGATATATTTTCCTCGAGAAATGAACCATTAGAATCACTCTACTTTTGGAATTAACCGGTTATGCAAGTCCATATGATTTGTATAAATACTGATATACATAATGCTCATCTATAATGCATAGTTTTTTCATTCAGCTCTAAAATATTATAAGTAATGTTATTGAGCCTCGATTGATTGATTGACAAAAAAAAAAAATGTTATTGAGCCTTCGATTCTTTTTTTGAGCCTTTAATTGG (double strand) [CSLA9 promoter -1312 to -1013]		binds

Tags and fusion partners may be left off the protein sequences shown.
